Read-outs that look alike come from different tables or passages of the source. These are yes or no findings as the source states them, for the method shown. Binding seen in cells or lysates may run through a third protein. Some results given as binding are weak or reduced against the parent protein; the word gives no strength.
What was measured:
[1] = target: eukaryotic initiation factor 4A-1 (EIF4A1) (human (endogenous in HaCaT)) (UniProt P60842); assay: co-IP; 1 mg lysate protein with 10 μg anti-EIF4A1 antibody in IP lysis buffer at 4°C overnight, Protein A and Protein G magnetic beads; western blot with anti-USP15; EIF4A1 as bait; also done after silencing USP15
[2] = target: eukaryotic initiation factor 4A-1 (EIF4A1) (human (endogenous in HaCaT)) (UniProt P60842); assay: as above; remark: listed apart in the source

By UniProt entry, the sequences of proteins in these tests, tags left out.
UniProt P60842: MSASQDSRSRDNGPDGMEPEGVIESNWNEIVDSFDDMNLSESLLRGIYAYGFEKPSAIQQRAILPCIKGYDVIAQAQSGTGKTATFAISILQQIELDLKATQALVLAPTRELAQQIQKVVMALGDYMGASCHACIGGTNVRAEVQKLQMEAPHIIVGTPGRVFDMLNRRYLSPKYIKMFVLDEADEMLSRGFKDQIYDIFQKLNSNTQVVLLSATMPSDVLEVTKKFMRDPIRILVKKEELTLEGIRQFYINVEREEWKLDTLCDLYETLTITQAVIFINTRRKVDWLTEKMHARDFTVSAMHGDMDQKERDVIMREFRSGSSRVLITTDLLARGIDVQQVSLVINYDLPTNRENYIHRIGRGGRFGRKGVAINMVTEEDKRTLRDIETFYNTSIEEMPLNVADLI
UniProt P04406: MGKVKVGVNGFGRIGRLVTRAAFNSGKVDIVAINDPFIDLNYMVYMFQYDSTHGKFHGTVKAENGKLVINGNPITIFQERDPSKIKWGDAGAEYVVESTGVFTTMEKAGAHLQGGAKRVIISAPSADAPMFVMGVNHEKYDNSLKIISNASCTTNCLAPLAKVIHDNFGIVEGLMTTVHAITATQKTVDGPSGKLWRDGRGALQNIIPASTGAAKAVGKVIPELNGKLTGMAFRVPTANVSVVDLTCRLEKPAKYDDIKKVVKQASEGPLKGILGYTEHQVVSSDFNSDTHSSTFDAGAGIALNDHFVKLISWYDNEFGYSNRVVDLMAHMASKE

With GAPDH (from UniProt P04406 1-335) as the molecule, how does the binding [1] read?
Its binding is “no binding”.

B1: Ubiquitin-specific peptidase 15 (USP15) (enzyme, UniProt Q9Y4E8 1-981)
chain: MAEGGAADLDTQRSDIATLLKTSLRKGDTWYLVDSRWFKQWKKYVGFDSWDKYQMGDQNVYPGPIDNSGLLKDGDAQSLKEHLIDELDYILLPTEGWNKLVSWYTLMEGQEPIARKVVEQGMFVKHCKVEVYLTELKLCENGNMNNVVTRRFSKADTIDTIEKEIRKIFSIPDEKETRLWNKYMSNTFEPLNKPDSTIQDAGLYQGQVLVIEQKNEDGTWPRGPSTPKSPGASNFSTLPKISPSSLSNNYNNMNNRNVKNSNYCLPSYTAYKNYDYSEPGRNNEQPGLCGLSNLGNTCFMNSAIQCLSNTPPLTEYFLNDKYQEELNFDNPLGMRGEIAKSYAELIKQMWSGKFSYVTPRAFKTQVGRFAPQFSGYQQQDCQELLAFLLDGLHEDLNRIRKKPYIQLKDADGRPDKVVAEEAWENHLKRNDSIIVDIFHGLFKSTLVCPECAKISVTFDPFCYLTLPLPMKKERTLEVYLVRMDPLTKPMQYKVVVPKIGNILDLCTALSALSGIPADKMIVTDIYNHRFHRIFAMDENLSSIMERDDIYVFEININRTEDTEHVIIPVCLREKFRHSSYTHHTGSSLFGQPFLMAVPRNNTEDKLYNLLLLRMCRYVKISTETEETEGSLHCCKDQNINGNGPNGIHEEGSPSEMETDEPDDESSQDQELPSENENSQSEDSVGGDNDSENGLCTEDTCKGQLTGHKKRLFTFQFNNLGNTDINYIKDDTRHIRFDDRQLRLDERSFLALDWDPDLKKRYFDENAAEDFEKHESVEYKPPKKPFVKLKDCIELFTTKEKLGAEDPWYCPNCKEHQQATKKLDLWSLPPVLVVHLKRFSYSRYMRDKLDTLVDFPINDLDMSEFLINPNAGPCRYNLIAVSNHYGGMGGGHYTAFAKNKDDGKWYYFDDSSVSTASEDQIVSKAAYVLFYQRQDTFSGTGFFPLDRETKGASAATGIPLESDEDSNDNDNDIENENCMHTN
How did the binding [2] turn out when B1 was run?
The binding was “binds”.

Reference: PMC7332549
